Test results reported in PMC10613311.
Results are given in words; binding and its absence hold for the method and conditions named. In cells and extracts the contact can be indirect. Some entries that bind do so weakly or less than the wild type.

The chains behind the UniProt entries cited, without tags or fusion partners.
UniProt Q08874: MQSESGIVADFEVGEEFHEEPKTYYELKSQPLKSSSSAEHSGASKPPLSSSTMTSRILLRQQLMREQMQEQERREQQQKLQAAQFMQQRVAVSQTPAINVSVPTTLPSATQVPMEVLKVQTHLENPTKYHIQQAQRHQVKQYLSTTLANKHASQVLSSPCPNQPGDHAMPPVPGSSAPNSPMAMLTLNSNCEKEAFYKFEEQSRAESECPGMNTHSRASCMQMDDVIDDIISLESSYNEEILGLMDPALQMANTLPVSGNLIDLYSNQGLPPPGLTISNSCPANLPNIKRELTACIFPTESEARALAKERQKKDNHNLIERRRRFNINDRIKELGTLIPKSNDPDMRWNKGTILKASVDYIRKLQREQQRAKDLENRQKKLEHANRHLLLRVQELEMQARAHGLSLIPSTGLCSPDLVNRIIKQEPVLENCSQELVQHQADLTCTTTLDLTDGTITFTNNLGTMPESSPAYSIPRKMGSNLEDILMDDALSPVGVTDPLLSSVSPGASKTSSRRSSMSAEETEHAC

Key:
[1] = target: microphthalmia-associated transcription factor (mouse (endogenous in B16F10)) (UniProt Q08874); test: co-IP; 700 ug of proteins from nuclear and cytosolic extracts after cyto-nuclear fractionation; 6 ug of specific antibodies with Dynabeads Protein G; immunoblot; nuclear enrichment of pigmented B16F10 WT cells
[2] = target: microphthalmia-associated transcription factor (mouse (endogenous in B16F10)) (UniProt Q08874); test: proximity ligation; in situ PLA (Duolink In Situ Red Mouse/Rabbit kit) on fixed, permeabilised B16F10 WT and TG2 KO cells, with or without pigmentation induction; anti-TG2 (rabbit) and anti-MITF (mouse); confocal imaging, dots per cell

binding [1]: binds
binding [2]: binds
B1: Transglutaminase Type-2 (enzyme, UniProt P21981 1-686)
chain: MAEELLLERCDLEIQANGRDHHTADLCQEKLVLRRGQRFRLTLYFEGRGYEASVDSLTFGAVTGPDPSEEAGTKARFSLSDNVEEGSWSASVLDQQDNVLSLQLCTPANAPIGLYRLSLEASTGYQGSSFVLGHFILLYNAWCPADDVYLDSEEERREYVLTQQGFIYQGSVKFIKSVPWNFGQFEDGILDTCLMLLDMNPKFLKNRSRDCSRRSSPIYVGRVVSAMVNCNDDQGVLLGRWDNNYGDGISPMAWIGSVDILRRWKEHGCQQVKYGQCWVFAAVACTVLRCLGIPTRVVTNYNSAHDQNSNLLIEYFRNEFGELESNKSEMIWNFHCWVESWMTRPDLQPGYEGWQAIDPTPQEKSEGTYCCGPVSVRAIKEGDLSTKYDAPFVFAEVNADVVDWIRQEDGSVLKSINRSLVVGQKISTKSVGRDDREDITHTYKYPEGSPEEREVFTKANHLNKLAEKEETGVAMRIRVGDSMSMGNDFDVFAHIGNDTSETRECRLLLCARTVSYNGVLGPECGTEDINLTLDPYSENSIPLRILYEKYSGCLTESNLIKVRGLLIEPAANSYLLAERDLYLENPEIKIRVLGEPKQNRKLVAEVSLKNPLSDPLYDCIFTVEGAGLTKEQKSVEVSDPVPAGDLVKARVDLFPTDIGLHKLVVNFQCDKLKSVKGYRNVIIGPA
